No constants are given. Whether binding was seen depends on the method and setting. Binding seen in cells or lysates may run through a third protein. A yes stands for co-enrichment or nearness to the bait. Other partners may have been found. Where a sequence is shown, tags or fusion partners need not be part of it.

Chains of the proteins cited; added tags and fusions are not shown. Residues count along the entry.
UniProt P43220, residues 24-463: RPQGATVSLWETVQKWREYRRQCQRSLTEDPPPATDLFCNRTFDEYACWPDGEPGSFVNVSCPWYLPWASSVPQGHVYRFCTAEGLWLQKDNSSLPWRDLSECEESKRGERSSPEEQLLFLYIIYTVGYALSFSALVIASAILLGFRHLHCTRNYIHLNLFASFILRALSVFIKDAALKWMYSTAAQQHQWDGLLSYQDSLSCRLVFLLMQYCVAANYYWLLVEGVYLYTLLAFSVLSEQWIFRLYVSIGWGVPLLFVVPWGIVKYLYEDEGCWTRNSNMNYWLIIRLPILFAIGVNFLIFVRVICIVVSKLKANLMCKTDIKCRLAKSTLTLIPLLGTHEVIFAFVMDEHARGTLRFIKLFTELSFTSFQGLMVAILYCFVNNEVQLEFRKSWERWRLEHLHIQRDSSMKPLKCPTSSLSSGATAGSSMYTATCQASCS
UniProt P09456: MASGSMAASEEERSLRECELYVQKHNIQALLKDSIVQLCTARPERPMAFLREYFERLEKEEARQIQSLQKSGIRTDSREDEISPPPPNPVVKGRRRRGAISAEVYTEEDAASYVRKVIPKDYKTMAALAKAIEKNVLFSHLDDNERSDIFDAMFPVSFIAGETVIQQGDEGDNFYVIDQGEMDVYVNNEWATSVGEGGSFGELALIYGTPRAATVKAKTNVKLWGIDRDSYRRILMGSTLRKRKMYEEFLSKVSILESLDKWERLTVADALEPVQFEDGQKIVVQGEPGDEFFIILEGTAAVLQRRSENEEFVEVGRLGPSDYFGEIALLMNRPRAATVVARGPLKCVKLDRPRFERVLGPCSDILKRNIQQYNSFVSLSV
UniProt Q920L2, residues 35-656: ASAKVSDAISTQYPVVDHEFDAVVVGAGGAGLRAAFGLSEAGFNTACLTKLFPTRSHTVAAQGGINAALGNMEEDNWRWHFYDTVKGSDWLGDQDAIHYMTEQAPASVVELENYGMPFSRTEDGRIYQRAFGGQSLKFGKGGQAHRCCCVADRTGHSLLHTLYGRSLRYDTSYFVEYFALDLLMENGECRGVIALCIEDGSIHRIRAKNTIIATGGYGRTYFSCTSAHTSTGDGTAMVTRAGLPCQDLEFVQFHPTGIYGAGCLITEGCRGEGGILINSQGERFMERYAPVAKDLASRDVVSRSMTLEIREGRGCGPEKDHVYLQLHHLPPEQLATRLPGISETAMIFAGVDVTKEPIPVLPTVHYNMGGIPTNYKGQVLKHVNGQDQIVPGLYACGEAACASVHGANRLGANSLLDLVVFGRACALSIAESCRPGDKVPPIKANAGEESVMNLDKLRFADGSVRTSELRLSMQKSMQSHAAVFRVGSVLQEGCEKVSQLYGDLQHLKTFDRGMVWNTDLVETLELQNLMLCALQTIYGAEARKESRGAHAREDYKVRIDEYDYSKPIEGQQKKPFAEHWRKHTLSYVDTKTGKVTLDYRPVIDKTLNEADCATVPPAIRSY
UniProt Q920R3: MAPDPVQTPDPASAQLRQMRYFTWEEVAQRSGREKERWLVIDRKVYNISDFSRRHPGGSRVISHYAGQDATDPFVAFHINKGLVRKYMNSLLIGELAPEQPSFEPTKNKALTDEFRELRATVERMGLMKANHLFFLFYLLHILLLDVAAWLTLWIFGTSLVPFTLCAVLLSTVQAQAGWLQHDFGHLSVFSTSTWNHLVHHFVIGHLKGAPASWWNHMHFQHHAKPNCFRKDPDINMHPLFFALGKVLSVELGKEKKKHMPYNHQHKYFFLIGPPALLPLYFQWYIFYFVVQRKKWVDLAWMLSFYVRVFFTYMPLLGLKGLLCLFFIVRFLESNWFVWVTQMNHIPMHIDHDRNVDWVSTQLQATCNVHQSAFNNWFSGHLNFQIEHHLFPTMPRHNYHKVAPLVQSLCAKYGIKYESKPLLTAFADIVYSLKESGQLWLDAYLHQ
UniProt P81377: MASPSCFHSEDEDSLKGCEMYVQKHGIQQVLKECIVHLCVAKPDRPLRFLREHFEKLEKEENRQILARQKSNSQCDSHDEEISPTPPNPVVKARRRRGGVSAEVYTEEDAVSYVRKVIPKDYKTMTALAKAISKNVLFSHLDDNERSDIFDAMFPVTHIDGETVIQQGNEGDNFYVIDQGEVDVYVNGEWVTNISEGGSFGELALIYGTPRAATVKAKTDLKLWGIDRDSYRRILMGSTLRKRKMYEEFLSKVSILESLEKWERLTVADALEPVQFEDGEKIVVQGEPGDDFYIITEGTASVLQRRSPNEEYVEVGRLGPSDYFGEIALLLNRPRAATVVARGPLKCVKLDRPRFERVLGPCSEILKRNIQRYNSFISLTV
UniProt Q5EB77: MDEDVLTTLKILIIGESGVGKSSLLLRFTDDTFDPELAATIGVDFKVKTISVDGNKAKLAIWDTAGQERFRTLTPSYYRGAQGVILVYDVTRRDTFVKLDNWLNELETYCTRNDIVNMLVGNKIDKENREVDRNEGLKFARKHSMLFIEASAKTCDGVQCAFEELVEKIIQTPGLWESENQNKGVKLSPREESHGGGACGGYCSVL
UniProt Q9Z269: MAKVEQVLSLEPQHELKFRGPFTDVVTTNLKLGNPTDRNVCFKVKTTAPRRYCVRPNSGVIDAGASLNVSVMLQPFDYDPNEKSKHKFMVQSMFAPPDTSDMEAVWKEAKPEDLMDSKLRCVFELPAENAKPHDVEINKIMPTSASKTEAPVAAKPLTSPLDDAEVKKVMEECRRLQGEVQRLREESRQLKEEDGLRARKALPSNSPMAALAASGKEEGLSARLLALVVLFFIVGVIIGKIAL
UniProt O35547: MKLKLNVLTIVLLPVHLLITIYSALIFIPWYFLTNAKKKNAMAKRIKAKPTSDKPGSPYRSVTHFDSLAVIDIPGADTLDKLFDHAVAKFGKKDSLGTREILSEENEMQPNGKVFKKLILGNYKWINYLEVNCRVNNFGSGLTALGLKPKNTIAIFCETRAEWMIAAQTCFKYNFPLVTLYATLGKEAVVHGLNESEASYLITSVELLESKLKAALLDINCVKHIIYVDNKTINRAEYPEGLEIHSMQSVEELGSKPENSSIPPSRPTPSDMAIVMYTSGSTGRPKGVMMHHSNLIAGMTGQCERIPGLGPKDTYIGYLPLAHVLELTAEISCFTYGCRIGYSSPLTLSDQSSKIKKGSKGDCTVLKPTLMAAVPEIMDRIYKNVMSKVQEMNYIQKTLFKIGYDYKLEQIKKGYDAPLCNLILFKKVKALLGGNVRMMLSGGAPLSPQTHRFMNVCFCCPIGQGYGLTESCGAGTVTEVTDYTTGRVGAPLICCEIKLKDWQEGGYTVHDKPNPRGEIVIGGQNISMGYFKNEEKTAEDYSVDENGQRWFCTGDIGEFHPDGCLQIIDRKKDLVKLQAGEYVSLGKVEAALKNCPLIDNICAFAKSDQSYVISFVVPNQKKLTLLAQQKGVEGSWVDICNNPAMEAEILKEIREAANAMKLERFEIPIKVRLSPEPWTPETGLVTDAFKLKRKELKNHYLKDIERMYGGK
UniProt Q64428, residues 37-763: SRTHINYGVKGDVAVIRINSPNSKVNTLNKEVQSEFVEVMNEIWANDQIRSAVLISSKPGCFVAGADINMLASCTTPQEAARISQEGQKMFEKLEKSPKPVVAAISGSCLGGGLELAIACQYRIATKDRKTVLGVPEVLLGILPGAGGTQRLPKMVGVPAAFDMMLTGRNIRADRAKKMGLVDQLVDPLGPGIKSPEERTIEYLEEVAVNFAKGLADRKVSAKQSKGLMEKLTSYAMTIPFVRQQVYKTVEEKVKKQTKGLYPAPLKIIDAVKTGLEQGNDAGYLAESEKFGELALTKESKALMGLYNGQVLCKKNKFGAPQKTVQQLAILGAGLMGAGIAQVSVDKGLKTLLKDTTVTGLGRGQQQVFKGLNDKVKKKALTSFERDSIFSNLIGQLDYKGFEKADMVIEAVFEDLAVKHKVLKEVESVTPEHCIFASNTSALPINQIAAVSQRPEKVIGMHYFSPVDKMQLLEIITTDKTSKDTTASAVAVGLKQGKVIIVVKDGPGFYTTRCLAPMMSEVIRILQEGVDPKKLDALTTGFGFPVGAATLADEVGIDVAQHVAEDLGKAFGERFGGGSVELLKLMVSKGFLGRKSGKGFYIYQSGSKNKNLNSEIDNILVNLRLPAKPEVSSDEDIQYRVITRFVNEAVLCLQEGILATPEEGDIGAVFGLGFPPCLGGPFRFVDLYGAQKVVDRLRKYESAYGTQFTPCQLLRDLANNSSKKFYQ

First the molecules themselves.
B1: TAMM41 (enzyme, UniProt D3ZKT0 1-337)
chain: MALQALHSSGVGLRRILAHFPEDLSLAFAYGSAVYRQAGPSAHQENPMLDLVFTVDDPVAWHAMNLKKNWSHYSLLKLLGPRIISSVQNNYGAGVYFNPLIMCDGKLIKYGVISTGTLIEDLLNWNNLYIAGRLQKPVKIVSMNESTVLRAALDKNLKSAVTTACLMLPESFSEEDLFIEIAGLSYSGDFRMVIGEEKAKVLNIVKPNVVHFRELYESILQKDPQMVYKMHQGQLEIDKSPEGQFTQLMTLPRTLQQHINHIMDPPGRNRDVEETLLQVAQDPDCGDVVRLAVSSIVRPSSIRQSTKGLFTAGVKKSVIYSSRKLNKMWKGWVRKTS
B2: HADHB (enzyme, UniProt Q60587 35-475)
chain: SAPAVQTKSKKTLAKPNLKNIVVVEGVRIPFLLSGTSYKDLMPHDLARAALSGLLYRTNIPKDVVDYIIFGTVIQEVKTSNVAREAALGAGFSDKTPAHTVTMACISSNQAMTTAVGLIASGQCDVVVAGGVELMSDVPIRHSRNMRKMMLDLNKAKTLAQRLSLLTKFRLNFLSPELPAVAEFSTNETMGHSADRLAAAFAVSRMEQDKYALRSHSLAKKAQDEGHLSDIVPFKVPGKDTVSKDNGIRPSSLEQMAKLKPAFIKPYGTVTAANSSFLTDGASAMLIMSEDRALAMGYKPKAYLRDFIYVSQDPKDQLLLGPTYATPKVLEKAGLTMNDIDAFEFHEAFSGQILANFKAMDSDWFAQNYMGRKTKVGAPPLEKFNIWGGSLSLGHPFGATGCRLVMAAANRLRKDGGQYALVAACAAGGQGHAMIVEAYPK
B3: Bdh1 (enzyme, UniProt P29147 47-343)
chain: TSQADAASGKAVLVTGCDSGFGFSLAKHLHSKGFLVFAGCLLKDKGDAGVRELDSLKSDRLRTIQLNVCNSEEVEKAVETVRSGLKDPEKGMWGLVNNAGISTFGEVEFTSMETYKEVAEVNLWGTVRTTKSFLPLLRRAKGRVVNISSMLGRMANPARSPYCITKFGVEAFSDCLRYEMHPLGVKVSVVEPGNFIAATSLYSPERIQAIAKKMWDELPEVVRKDYGKKYFDEKIAKMETYCNSGSTDTSSVINAVTHALTAATPYTRYHPMDYYWWLRMQVMTHFPGAISDKIYIH
B4: Chp1 (protein, UniProt P61023 1-195)
chain: MGSRASTLLRDEELEEIKKETGFSHSQITRLYSRFTSLDKGENGTLSREDFQRIPELAINPLGDRIINAFFSEGEDQVNFRGFMRTLAHFRPIEDNEKSKDVNGPEPLNSRSNKLHFAFRLYDLDKDDKISRDELLQVLRMMVGVNISDEQLGSIADRTIQEADQDGDSAISFTEFVKVLEKVDVEQKMSIRFLH
B5: VAPA (protein, UniProt Q9Z270 1-249)
chain: MASASGAMAKHEQILVLDPPSDLKFKGPFTDVVTTNLKLQNPSDRKVCFKVKTTAPRRYCVRPNSGVIDPGSIVTVSVMLQPFDYDPNEKSKHKFMVQTIFAPPNISDMEAVWKEAKPDELMDSKLRCVFEMPNENDKLNDMEPSKAVPLNASKQDGPLPKPHSVSLNDTETRKLMEECKRLQGEMMKLSEENRHLRDEGLRLRKVAHSDKPGSTSAVSFRDNVTSPLPSLLVVIAAIFIGFFLGKFIL
B6: Cds2 (enzyme, UniProt Q91XU8 1-443)
chain: MTELRQRAVREDAPPEDKESESEAKLDGETASDSESRAETAPPPTSIDDTPEVLNRALSNLSSRWKNWWVRGILTMAMIAFFFIIIYLGPMVLMMIVMCVQIKCFHEIITIGYNVYHSYDLPWFRTLSWYFLLCVNYFFYGETVTDYFFTLVQREEPLRILSKYHRFISFTLYLTGFCMFVLSLVKKHYRLQFYMFGWTHVTLLIVVTQSHLVIHNLFEGMIWFIVPISCVICNDIMAYMFGFFFGRTPLIKLSPKKTWEGFIGGFFATVVFGLLLSYVMSGYRCFVCPVEYNNDTNSFTVDCEPSDLFRLQEYNIPGVIQSLVGWKTMRMYPFQIHSALSTFASLIGPFGGFFASGFKRAFKIKDFANTIPGHGGIMDRFDCQYLMATFVNVYIASFIRGPNPSKLIQQFLTLRPDQQLHIFNTLKSHLTDKGILMSALEEE
B7: Copb1 (protein, UniProt P23514 1-953)
chain: MTAAENVCYTLINVPMDSEPPSEISLKNDLEKGDVKSKTEALKKVIIMILNGEKLPGLLMTIIRFVLPLQDHTIKKLLLVFWEIVPKTTPDGRLLHEMILVCDAYRKDLQHPNEFIRGSTLRFLCKLKEAELLEPLMPAIRACLEHRHSYVRRNAVLAIYTIYRNFENLIPDAPELIHDFLVNEKDASCKRNAFMMLIHADQDRALDYLSTCIDQVQTFGDILQLVIVELIYKVCHANPSERARFIRCIYNLLQSSSPAVKYEAAGTLVTLSSAPTAIKAAAQCYIDLIIKESDNNVKLIVLDRLVELKEHPAHERVLQDLVMDILRVLSTPDLEVRKKTLQLALDLVSSRNVEELVIVLKKEVIKTNNVSEHEDTDKYRQLLVRTLHSCSVRFPDMAANVIPVLMEFLSDSNEAAAADVLEFVREAIQRFDNLRMLIVEKMLEVFHAIKSVKIYRGALWILGEYCSTKEDIQSVMTEVRRSLGEIPIVESEIKKEAGELKPEEEITVGPVQKLVTEMGTYATQSALSSSRPTKKEEDRPPLRGFLLDGDFFVAASLATTLTKIALRYVALVQEKKKQNSFVAEAMLLMATILHLGKSSLPKKPITDDDVDRISLCLKVLSECSPLMNDIFNKECRQSLSQMLSAKLEEEKLSQKKESEKRNVTVQPDDPISFMQLTAKNEMNCKEDQFQLSLLAAMGNTQRKEAADPLASKLNKVTQLTGFSDPVYAEAYVHVNQYDIVLDVLVVNQTSDTLQNCTLELATLGDLKLVEKPSPLTLAPHDFANIKANVKVASTENGIIFGNIVYDVSGAASDRNCVVLSDIHIDIMDYIQPATCTDAEFRQMWAEFEWENKVTVNTNVTDLNDYLQHILKSTNMKCLTPEKALSGYCGFMAANLYARSIFGEDALANVSIEKPVHQGPDAAVTGHIRIRAKSQGMALSLGDKINLSQKKTSL
B8: Mest (protein, UniProt Q6P5P5 1-335)
chain: MVRRDRLRRMREWWVQVGLLAVPLLAAYLHIPPPQLSPALHSWKTSGKFFTYKGLRIFYQDSVGVVGSPEIVVLLHGFPTSSYDWYKIWEGLTLRFHRVIALDFLGFGFSDKPRPHQYSIFEQASIVESLLRHLGLQNRRINLLSHDYGDIVAQELLYRYKQNRSGRLTIKSLCLSNGGIFPETHRPLLLQKLLKDGGVLSPILTRLMNFFVFSRGLTPVFGPYTRPTESELWDMWAGIRNNDGNLVIDSLLQYINQRKKFRRRWVGALASVTIPIHFIYGPLDPINPYPEFLELYRKTLPRSTVSILDDHISHYPQLEDPMGFLNAYMGFINSF
B9: Apgat4 (enzyme, UniProt Q924S1 1-378)
chain: MDLIGLLKSQFLCHLVFCYVFIASGLIVNAIQLCTLVIWPINKQLFRKINARLCYCVSSQLVMLLEWWSGTECTIYTDPKASPHYGKENAIVVLNHKFEIDFLCGWSLAERLGILGNSKVLAKKELAYVPIIGWMWYFVEMIFCTRKWEQDRQTVAKSLLHLRDYPEKYLFLIHCEGTRFTEKKHQISMQVAQAKGLPSLKHHLLPRTKGFAITVKCLRDVVPAVYDCTLNFRNNENPTLLGVLNGKKYHADCYVRRIPMEDIPEDEDKCSAWLHKLYQEKDAFQEEYYRTGVFPETPWVPPRRPWSLVNWLFWASLLLYPFFQFLVSMVSSGSSVTLASLVLIFCMASMGVRWMIGVTEIDKGSAYGNIDNKRKQTD
B10: TMEM120A (protein, UniProt Q5HZE2 1-343)
chain: MQSPPPDPLGDCLRNWEDLQQDFQGIQETHRLYRVKLEELTKLQDNCTNSITRQKKRLQELALVLKKCRPSLPSESLEAAQELESQIKERQGLFFDMEAYLPKKNGLYLSLVLGNVNVTLLSKQAKFAYKDEYEKFKLYLTIILIVISFTCRFLLNSRVTDAAFNFLLVWYYCTLTIRESILINNGSRIKGWWVFHHYVSTFLSGVMLTWPDGLMYQKFRNQFLSFSMYQSFVQFLQYYYQSGCLYRLRALGERHTMDLTVEGFQSWMWRGLTFLLPFLFFGHFWQLFNALTLFNLARDPECKEWQVLMCGLPFLLLFLGNFFTTLRVVHQKFHSQQHGSKKD
B11: voltage-dependent anion-selective channel protein 2 (VDAC2) (protein, UniProt P81155 1-295)
chain: MAECCVPVCQRPICIPPPYADLGKAARDIFNKGFGFGLVKLDVKTKSCSGVEFSTSGSSNTDTGKVSGTLETKYKWCEYGLTFTEKWNTDNTLGTEIAIEDQICQGLKLTFDTTFSPNTGKKSGKIKSAYKRECINLGCDVDFDFAGPAIHGSAVFGYEGWLAGYQMTFDSAKSKLTRSNFAVGYRTGDFQLHTNVNNGTEFGGSIYQKVCEDFDTSVNLAWTSGTNCTRFGIAAKYQLDPTASISAKVNNSSLIGVGYTQTLRPGVKLTLSALVDGKSFNAGGHKLGLALELEA

The target in the test is SNAP/FLAG-tagged human GLP-1R (human) (UniProt P43220). The test is described as follows: affinity purification with mass spectrometry; anti-FLAG M2 agarose beads, overnight at 4 °C, on lysates (50 mM Tris-HCl pH 7.4, 150 mM NaCl, 1% Triton X-100, 1 mM EDTA) of INS-1 832/3 SNAP/FLAG-hGLP-1R cells treated with vehicle or 100 nM GLP-1RA (GLP-1, exendin-4, exendin-F1 or exendin-D3) for 5 minutes; LC-MS/MS, label-free quantification normalised to hGLP-1R.
With PKA-RIα (from UniProt P09456 1-381), the binding result was “binds”.
To “SDHA (from UniProt Q920L2 35-656) (enzyme)” belongs “binds”.
In the case of “Fads1 (from UniProt Q920R3 1-447) (enzyme)” it was “binds”; in that of PKA-RIβ (from UniProt P81377 1-381), “binds”; in that of Rab18 (from UniProt Q5EB77 1-206), “binds”.
To “endogenous VAPB (INS-1 832/3 cells) (from UniProt Q9Z269 1-243)” belongs “binds”; to “Acsl4 (from UniProt O35547 1-711) (enzyme)”, “binds”; to “HADHA (from UniProt Q64428 37-763) (enzyme)”, “binds”.
B1: the binding result is “binds”.
In the case of B2 it was “binds”.
To B3 belongs “binds”; to B4, “binds”.
As to B5, the binding result was “binds”.
Take B6: the binding result was “binds”.
In the case of B7 it was “binds”.
To B8 belongs “binds”.
To B9 belongs “binds”.
Turning to B10, the binding entry is on record as “binds”.
Take B11: the binding result is recorded as “binds”.

The record behind these values is paper PMC12696101.
